Measurements reported in the supplement of paper PMC12462457.
Structures can show the parent of a compound that is named as a salt. ± gives the standard deviation of the averaged measurements. The list shows a part of the results. Repeats in this data set agree poorly, so a single value says little.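 Imaging of DAPI-stained nuclei was used to count cells; those without phalloidin-stained cytoplasm were treated as dead and excluded. Every well's count was divided by the median of same-plate vehicle wells, then averaged across two replicate plates.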

System: OVCAR8
Test: cell count relative to DMSO vehicle (fold change); higher = more surviving senescent cells (less killing)
Conditions: senescence inducer: cisplatin 10 µM 48 h, then 6 d recovery (CP senescent), exposure time 24 h

SMILES | cell count (compound dose 1 µM) | cell count (compound dose 5 µM)
Cc1sc2c(c1C)C(c1ccc(Cl)cc1)=N[C@@H](CC(N)=O)c1nnc(C)n1-2 | 0.55 ± 0.15 | 0.565 ± 0.091
COC1=C[C@@H]2[C@@H]3Cc4ccc(OC)c(O)c4[C@]2(CCN3C)CC1=O [Sinomenine hydrochloride] | 1.11 ± 0.076 | 1.1 ± 0.19
COC1=C[C@@H]2[C@@H]3Cc4ccc(OC)c(O)c4[C@]2(CCN3C)CC1=O | 0.981 ± 0.0028 | 0.97 ± 0.028
C/C(=C\c1csc(C)n1)[C@@H]1C[C@@H]2O[C@@H]2CCC[C@H](C)[C@H](O)[C@@H](C)C(=O)C(C)(C)[C@@H](O)CC(=O)O1 [Epothilone A] | 1.02 ± 0.26 | 1.05 ± 0.086
CCOC1c2c(ccc3c2OCO3)-c2ccc3cc4c(cc3c2N1C)OCO4 (stereo not given) [Ethoxysanguinarine] | 0.084 ± 0.024 | 0.0945 ± 0.029
C=CC(=O)N[C@H]1C=C(C)c2c(-c3cnc4ccccc4c3)c3c(N)ncnc3n2C1 | 0.9095 ± 0.0064 | 0.781 ± 0.032
O=C(c1ccccc1O)c1[nH]c(Cl)c(Cl)c1-n1c(C(=O)c2ccccc2O)cc(Cl)c1Cl [Maritoclax] | 1.08 ± 0.12 | 0.814 ± 0.059
CC(C)[C@]12O[C@H]1[C@@H]1O[C@]13[C@]1(O[C@H]1C[C@H]1C4=C(CC[C@@]13C)C(=O)OC4)[C@@H]2O [Triptolide] | 0.503 ± 0.0042 | 0.475 ± 0.061
CC(C)(C)c1cc(C=C(C#N)C#N)cc(Br)c1O | 1.02 ± 0.067 | 1.03 ± 0.052
CC(C)=CCC[C@](C)(O)[C@H]1CC[C@]2(C)[C@@H]1[C@H](O)C[C@@H]1[C@@]3(C)CC[C@H](O[C@@H]4O[C@H](CO)[C@@H](O)[C@H](O)[C@H]4O)C(C)(C)[C@@H]3CC[C@]12C [Ginsenoside Rh2] | 0.953 ± 0.12 | 0.824 ± 0.0085
COc1cc(C(=O)O[C@H]2[C@@H]3C=CO[C@@H](O[C@@H]4O[C@H](CO)[C@@H](O)[C@H](O)[C@H]4O)[C@@H]3[C@@]3(CO)O[C@@H]23)ccc1O [Picroside II] | 0.83 ± 0.09 | 0.853 ± 0.1
Cn1c(CCCC(=O)O)nc2cc(N(CCCl)CCCl)ccc21 [Bendamustine (hydrochloride)] | 0.988 ± 0.075 | 0.691 ± 0.081
CC(=O)O[C@H]1C[C@]2(O)[C@@H]3CC[C@@H]4C[C@@H](O)CC[C@]4(C)[C@H]3CC[C@]2(C)[C@H]1c1ccc(=O)oc1 [Bufotalin] | 0.019 ± 0.0014 | 0.022 ± 0.0028
CN1Cc2c(ccc3c2OCO3)[C@@H]2[C@H]1c1cc3c(cc1C[C@@H]2O)OCO3 [Chelidonine] | 0.908 ± 0.062 | 0.661 ± 0.067
O=C1C=CC[C@@H]2[C@H]3CCCN4CCC[C@@H](CN12)[C@@H]34 [Sophocarpine] | 1.01 ± 0.094 | 1.08 ± 0.42
O=C(O)C(=O)c1cn(Cc2ccccc2)c2ccc(-c3ccc(OC(F)(F)F)cc3)cc12 [Tiplaxtinin] | 1.2 ± 0.12 | 1.09 ± 0.018
COc1cc2c3cc1Oc1c(OC)c(OC)cc4c1[C@@H](Cc1cccc(c1)Oc1ccc(c(O)c1)C[C@@H]3N(C)CC2)N(C)CC4 | 1.12 ± 0.057 | 1.24 ± 0.24
CC[C@@H](C(=O)[C@@H](C)[C@@H](O)[C@H](C)[C@@H]1O[C@@H]([C@@H](CC)C(=O)O)CC[C@@H]1C)[C@H]1O[C@]2(C=C[C@@H](O)[C@]3(CC[C@@](C)([C@H]4CC[C@](O)(CC)[C@H](C)O4)O3)O2)[C@H](C)C[C@@H]1C [Salinomycin] | 0.905 ± 0.12 | 0.917 ± 0.5
CC[C@@H](C(=O)[C@@H](C)[C@@H](O)[C@H](C)[C@@H]1O[C@@H]([C@@H](CC)C(=O)O)CC[C@@H]1C)[C@H]1O[C@]2(C=C[C@@H](O)[C@]3(CC[C@@](C)([C@H]4CC[C@](O)(CC)[C@H](C)O4)O3)O2)[C@H](C)C[C@@H]1C [Salinomycin (sodium salt)] | 0.719 ± 0.06 | 1.03 ± 0.028
OC(Cc1ccncc1)C(Cl)(Cl)Cl (stereo not given) | 1.05 ± 0.061 | 1.18 ± 0.025
S=C=NCc1ccccc1 | 0.803 ± 0.22 | 0.955 ± 0.15
C[C@@H]1CC[C@@]2(OC1)O[C@H]1C[C@H]3[C@@H]4CC=C5C[C@@H](O[C@@H]6O[C@H](CO)[C@@H](O[C@@H]7O[C@@H](C)[C@H](O)[C@@H](O)[C@H]7O)[C@H](O)[C@H]6O[C@@H]6O[C@@H](C)[C@H](O)[C@@H](O)[C@H]6O)CC[C@]5(C)[C@H]4CC[C@]3(C)[C@H]1[C@@H]2C [Dioscin] | 1.16 ± 0.19 | 0.216 ± 0.048
Cn1cc(C2=C(c3cn(C4CCN(Cc5ccccn5)CC4)c4ccccc34)C(=O)NC2=O)c2ccccc21 | 1.07 ± 0.02 | 1.25 ± 0.12
CC(C)=CCCC(C)(O)C1CCC2(C)C1C(O)CC1C3(C)CCC(OC4OC(CO)C(O)C(O)C4O)C(C)(C)C3CCC12C [20(R)-Ginsenoside Rh2] | 1.1 ± 0.085 | 1.16 ± 0.12
O=C(O)CC[N+](=O)[O-] [3-Nitropropanoic acid] | 0.521 ± 0.017 | 0.48 ± 0.046
O=C(CBr)N1CC([N+](=O)[O-])([N+](=O)[O-])C1 | 1.03 ± 0.12 | 0.939 ± 0.025
C[S+]([O-])/C=C/CCN=C=S (stereo not given) [Sulforaphene] | 1.17 ± 0.1 | 0.98 ± 0.15
S=P1(c2ccccc2)Nc2ccccc2O1 (stereo not given) | 0.854 ± 0.07 | 0.666 ± 0.26

A different layout for part of the listing above.
Cn1c(CCCC(=O)O)nc2cc(N(CCCl)CCCl)ccc21 [Bendamustine (hydrochloride)]
  cell count (compound dose 1 µM): 0.988 ± 0.075; cell count (compound dose 5 µM): 0.691 ± 0.081
C[C@@H]1CC[C@@]2(OC1)O[C@H]1C[C@H]3[C@@H]4CC=C5C[C@@H](O[C@@H]6O[C@H](CO)[C@@H](O[C@@H]7O[C@@H](C)[C@H](O)[C@@H](O)[C@H]7O)[C@H](O)[C@H]6O[C@@H]6O[C@@H](C)[C@H](O)[C@@H](O)[C@H]6O)CC[C@]5(C)[C@H]4CC[C@]3(C)[C@H]1[C@@H]2C [Dioscin]
  cell count (compound dose 1 µM): 1.16 ± 0.19; cell count (compound dose 5 µM): 0.216 ± 0.048

Next part.

SMILES | cell count (compound dose 1 µM) | cell count (compound dose 5 µM)
COc1cc2c(c(OC)c1OC)-c1ccc(OC)c(=O)cc1[C@@H](NC(C)=O)CC2 [Colchicine] | 0.798 ± 0.077 | 0.729 ± 0.018
CN(C)C(=O)OC1=C(c2cccc3ccccc23)Oc2ccccc2-n2cccc21 | 0.948 ± 0.064 | 1.089 ± 0.005
CC1=CC(=O)[C@@H](O)[C@]2(C)[C@H]3[C@@H](O)[C@H](O)[C@]4(C)OC[C@@]35[C@@H](C[C@@H]12)OC(=O)[C@H](O)[C@]54O [Bruceine D] | 0.971 ± 0.14 | 0.869 ± 0.42
O=C(O)c1nn(Cc2ccc(Cl)cc2Cl)c2ccccc12 | 1.11 ± 0.13 | 0.618 ± 0.58
CCOC(=O)[C@H](Cc1ccc(F)cc1)NC(=O)[C@@H](N)Cc1ccc(N(CCCl)CCCl)cc1 [Melflufen (hydrochloride)] | 0.634 ± 0.085 | 0.093 ± 0.035
CCN1CCN(C(=O)Cc2ccc(Nc3ncc(F)c(Nc4ccc(C(=O)Nc5ccccc5Cl)cc4)n3)cc2)CC1 [Aurora A Inhibitor I] | 0.973 ± 0.052 | 0.651 ± 0.18
CO[C@H]1C[C@H](O[C@H]2CC[C@]3(C)[C@H]4CC[C@]5(C)[C@@H](C6=CC(=O)OC6)CC[C@]5(O)[C@@H]4CC[C@]3(O)C2)O[C@H](C)[C@H]1O[C@@H]1O[C@H](CO)[C@@H](O)[C@H](O)[C@H]1O [Periplocin] | 0.075 ± 0.014 | 0.0485 ± 0.019
N#Cc1cn([C@@H]2O[C@H](CO)[C@@H](O)[C@H]2O)c2ncnc(N)c12 [Toyocamycin] | 0.344 ± 0.12 | 0.126 ± 0.023
C[C@@H]1CC[C@]2(NC1)O[C@H]1C[C@H]3[C@@H]4CC=C5C[C@@H](O)CC[C@]5(C)[C@H]4CC[C@]3(C)[C@H]1[C@@H]2C | 1.19 ± 0.14 | 0.973 ± 0.2
Cc1ncc(C[n+]2csc(CCO)c2C)c(=O)[nH]1 [Oxythiamine] | 0.8105 ± 0.00071 | 0.7435 ± 0.0035
Cn1c(COP(=O)(NCCBr)NCCBr)cnc1[N+](=O)[O-] [Evofosfamide] | 1.02 ± 0.23 | 0.92 ± 0.13
C[C@H]1CC[C@]2(NC1)O[C@H]1C[C@H]3[C@@H]4CC[C@H]5C[C@@H](O[C@@H]6O[C@H](CO)[C@H](O[C@@H]7O[C@H](CO)[C@@H](O)[C@H](O[C@@H]8OC[C@@H](O)[C@H](O)[C@H]8O)[C@H]7O[C@@H]7O[C@H](CO)[C@@H](O)[C@H](O)[C@H]7O)[C@H](O)[C@H]6O)CC[C@]5(C)[C@H]4CC[C@]3(C)[C@H]1[C@@H]2C [Tomatine] | 0.13 ± 0.042 | 0.0135 ± 0.012
O=C1C2CCN(CC2)C1(CO)CO | 0.982 ± 0.17 | 0.851 ± 0.095
CC(C)[C@]12O[C@H]1[C@@H]1O[C@@]13[C@@]1(C)CCC4=C(COC4=O)[C@@H]1C[C@@H]1O[C@@]13C2=O [Triptonide] | 0.55 ± 0.15 | 0.428 ± 0.048
C[C@@]1(C(=O)O)CC[C@]2(C)CC[C@]3(C)C4=CC(=O)c5c(cc(O)c(O)c5C=O)[C@]4(C)CC[C@@]3(C)[C@@H]2C1 [Demethylzeylasteral] | 0.942 ± 0.013 | 0.921 ± 0.026
COc1c(C)c(O)cc2[o+]c(-c3ccccc3)ccc12.[O-][Cl+3]([O-])([O-])[O-] [Dracorhodin perchlorate] | 1.06 ± 0.12 | 1.13 ± 0.041
C=C(CO)C(=O)O[C@H]1CC(=C)[C@@H]2C[C@H](O)C(=C)[C@@H]2[C@H]2OC(=O)C(=C)[C@@H]21 [Cynaropicrin] | 0.625 ± 0.068 | 0.332 ± 0.11
COc1cc2c(cc1OC)-c1c(oc3c4c(ccc3c1=O)OC(C(C)C)C4)CO2 (stereo not given) | 1.16 ± 0.49 | 0.683 ± 0.16
O=c1[nH]c2ccc(Cl)cc2c(N[C@@H]2CN3CCC2CC3)c1-c1nc2ccccc2[nH]1 | 0.469 ± 0.09 | 0.569 ± 0.13
NCCCNCCSP(=O)(O)O | 1.03 ± 0.032 | 1.01 ± 0.093
O=C1Nc2ccc3ncsc3c2/C1=C/c1cnc[nH]1 | 1.05 ± 0.059 | 0.772 ± 0.011
C/C=C(\C)C(=O)O[C@H]1C[C@@H](OC(C)=O)[C@@]2(C(=O)OC)CO[C@H]3[C@@H](O)[C@@](C)([C@]45O[C@@]4(C)[C@H]4C[C@@H]5O[C@@H]5OC=C[C@@]54O)[C@H]4[C@]1(CO[C@]4(O)C(=O)OC)[C@@H]32 | 1.12 ± 0.081 | 1 ± 0.13
Cc1cc2c(C(C)C)c(O)c(O)c(C=O)c2c(O)c1-c1c(C)cc2c(C(C)C)c(O)c(O)c(C=O)c2c1O | 1.13 ± 0.073 | 0.723 ± 0.17
O=C1CCC[C@@H]2[C@H]3CCCN4CCC[C@@H](CN12)[C@@H]34 [Matrine] | 0.897 ± 0.14 | 0.738 ± 0.11
CN[C@@H]1C[C@H]2O[C@@](C)([C@@H]1OC)n1c3ccccc3c3c4c(c5c6ccccc6n2c5c31)C(=O)NC4 [Staurosporine] | 0.0345 ± 0.011 | 0.0235 ± 0.018
CC(=O)O[C@H]1[C@H]2O[C@]23[C@@H]2CC[C@@H]4C[C@@H](O)CC[C@]4(C)[C@H]2CC[C@]3(C)[C@H]1c1ccc(=O)oc1 [Cinobufagin] | 0.01 ± 0.014 | 0.039 ± 0.021
Cc1ccc(OCCn2c(C)c(C=C3C(=O)NC(=S)NC3=O)c3ccccc32)c(C)c1 | 0.742 ± 0.14 | 0.684 ± 0.21
